Counter-ions that a name gives are not always drawn. Some of the results follow. Most values lie within the scatter of the assay; repeated measurements hardly agree.
Test system: Brugia pahangi adult female
Test: motility inhibition on day 3 relative to DMSO vehicle; higher = more active
Details: 10 µM; 3 days

Row | Structure (SMILES) | motility inhibition on day 3
1 | O=c1[nH]cc(F)c(=O)[nH]1 [fluorouracil] | 39.3%
2 | CS(=O)(=O)c1ccc([C@@H](O)[C@@H](CO)NC(=O)C(Cl)Cl)cc1 [thiamphenicol] | 12.1%
3 | CC(C)Cc1ccc([C@H](C)C(=O)O)cc1 [dexibuprofen] | 2.68%
4 | N=c1ccn2c(n1)O[C@H]1[C@H](O)[C@@H](CO)O[C@H]12 [ancitabine hydrochloride] | 5.35%
5 | CC(=O)Oc1c(C)cccc1C(=O)O [cresopyrine] | 13.6%
6 | COC(=O)[C@H]1[C@H]2C[C@@H]3c4[nH]c5cc(OC)ccc5c4CCN3C[C@H]2C[C@@H](OC(=O)c2cc(OC)c(OC)c(OC)c2)[C@@H]1OC [reserpine] | < 0%
7 | CNC(=C[N+](=O)[O-])NCCSCc1ccc(CN(C)C)o1 [Ranitidine hydrochloride] | 1.8%
8 | CCCc1nc(C)c2c(O)nc(-c3cc(S(=O)(=O)N4CCN(CC)CC4)ccc3OCC)nn12 [vardenafil hydrochloride] | 3.07%
9 | N[C@H](Cc1ccccc1)C(=O)O [d-phenylalanine] | < 0%
10 | CNC[C@H](O)c1cccc(O)c1 [Phenylephrine hydrochloride] | 9.01%
11 | CN1C(=O)CC(C)(c2ccccc2)C1=O (centres undefined) [methsuximide] | 9.63%
12 | CCN(CC)CCNC(=O)c1ccc(NC(C)=O)cc1 [N-Acetylprocainamide hydrochloride] | < 0%
13 | CCOC(=O)[C@H](CCc1ccccc1)N[C@@H](C)C(=O)N1[C@H](C(=O)O)C[C@H]2CCCC[C@@H]21 [trandolapril] | 2.16%
14 | CC(C)(CO)[C@@H](O)C(=O)NCCCO [dexpanthenol] | 14.2%
15 | NS(=O)(=O)c1ccc(C(=O)O)cc1 [carzenide] | 38.4%
16 | CO[C@H]1C[C@@H]2CC[C@@H](C)[C@@](O)(O2)C(=O)C(=O)N2CCCC[C@H]2C(=O)O[C@H]([C@H](C)C[C@@H]2CC[C@@H](O)[C@H](OC)C2)CC(=O)[C@H](C)/C=C(\C)[C@@H](O)[C@@H](OC)C(=O)[C@H](C)C[C@H](C)/C=C/C=C/C=C/1C [sirolimus] | 13.8%
17 | CCOc1ccccc1C(N)=O [ethenzamide] | < 0%
18 | CC(=O)N1CCN(c2ccc(OCC3COC(Cn4ccnc4)(c4ccc(Cl)cc4Cl)O3)cc2)CC1 (centres undefined) [ketoconazole] | < 0%
19 | CN(CCOc1ccc(NS(C)(=O)=O)cc1)CCc1ccc(NS(C)(=O)=O)cc1 | < 0%
20 | N=C(N)NCCC[C@@H](NC(=O)[C@@H]1CCCN1C(=O)[C@@H]1CSSCCC(=O)N[C@@H](Cc2ccc(O)cc2)C(=O)N[C@@H](Cc2ccccc2)C(=O)N[C@@H](CCC(N)=O)C(=O)N[C@@H](CC(N)=O)C(=O)N1)C(=O)NCC(N)=O [Desmopressin] | < 0%
21 | C#C[C@]1(O)CC[C@H]2[C@@H]3CCc4cc(OC)ccc4[C@H]3CC[C@@]21C [mestranol] | 23.6%
22 | CC(C)NCC(O)c1ccc(NS(C)(=O)=O)cc1 (centres undefined) [sotalol hydrochloride] | < 0%
23 | CCCCCCCCCCCCCCCC[N+](C)(C)CCN(Cc1ccc(OC)cc1)c1ncccn1 [thonzonium bromide] | 99.3%

Row | Structure (SMILES) | motility inhibition on day 3
24 | O=C(O)P(=O)(O)O [foscarnet sodium] | 5.21%
25 | CCN(CC)CCCC(C)Nc1c2ccc(Cl)cc2nc2ccc(OC)cc12 (centres undefined) [Quinacrine dihydrochloride] | 31.2%
26 | Cc1nc(C)c(Cl)c(O)c1Cl [clopidol] | 17.9%
27 | C[C@@H]1CN(c2c(F)c(N)c3c(=O)c(C(=O)O)cn(C4CC4)c3c2F)C[C@H](C)N1 [sparfloxacin] | 6.75%
28 | C[C@@H]1CN(c2c(F)c(N)c3c(=O)c(C(=O)O)cn(C4CC4)c3c2F)C[C@H](C)N1 [Sparfloxacin] | < 0%
29 | Cc1ccc(S(=O)(=O)NCl)cc1 [chloramine-t] | < 0%
30 | CCn1cc(C(=O)O)c(=O)c2cc(F)c(N3CCN(C)CC3)cc21 [pefloxacine mesylate] | 5.87%
31 | CNC(=C[N+](=O)[O-])NCCSCc1csc(CN(C)C)n1 [nizatidine] | 25.1%
32 | OCc1ccccc1 [benzyl alcohol] | < 0%
33 | CCC1=C[C@@H]2CN(C1)Cc1c([nH]c3ccccc13)[C@@](C(=O)OC)(c1cc3c(cc1OC)N(C)[C@H]1[C@@](O)(C(=O)OC)[C@H](OC(C)=O)[C@]4(CC)C=CCN5CC[C@]31[C@@H]54)C2 [vinorelbine] | < 0%
34 | CCn1cc(C(=O)O)c(=O)c2cc(F)c(N3CCNC(C)C3)c(F)c21 (centres undefined) [lomefloxacin hydrochloride] | 9.15%
35 | CS(=O)(=O)Nc1ccc([N+](=O)[O-])cc1Oc1ccccc1 [nimesulide] | 56%
36 | CCOC(=O)CCC(=O)O[C@H]1[C@H](O[C@@H]2[C@@H](C)[C@H](O[C@H]3C[C@@](C)(OC)[C@@H](O)[C@H](C)O3)[C@@H](C)C(=O)O[C@H](CC)[C@@](C)(O)[C@H](O)[C@@H](C)C(=O)[C@H](C)C[C@@]2(C)O)O[C@H](C)C[C@@H]1N(C)C [erythromycin ethylsuccinate] | < 0%
37 | C[C@]12C=CC(=O)C=C1CC[C@@H]1[C@@H]2C(=O)C[C@@]2(C)[C@H]1CC[C@]2(O)C(=O)CO [prednisone] | < 0%
38 | Cc1ccc(/C(=C\CN2CCCC2)c2ccccn2)cc1 [Triprolidine hydrochloride] | 20.6%
39 | CC(C)(O/N=C(\C(=O)N[C@@H]1C(=O)N2C(C(=O)[O-])=C(C[n+]3ccccc3)CS[C@H]12)c1csc(N)n1)C(=O)O [ceftazidime] | 15.3%
40 | CC(C)(O/N=C(\C(=O)N[C@@H]1C(=O)N2C(C(=O)[O-])=C(C[n+]3ccccc3)CS[C@H]12)c1csc(N)n1)C(=O)O [Ceftazidime] | 9.79%
41 | CCc1c2c(nc3ccc(OC(=O)N4CCC(N5CCCCC5)CC4)cc13)-c1cc3c(c(=O)n1C2)COC(=O)[C@]3(O)CC [irinotecan hydrochloride] | 4.81%
42 | CNCCC=C1c2ccccc2CCc2ccccc21 [Nortriptyline hydrochloride] | < 0%
43 | C[C@H]1[C@H](NC(=O)/C(=N\OC(C)(C)C(=O)O)c2csc(N)n2)C(=O)N1S(=O)(=O)O [aztreonam] | 40.3%
44 | CC(=O)Nc1ccc(S(=O)(=O)Nc2ccc([N+](=O)[O-])cc2)cc1 [sulfanitran] | < 0%
45 | Cc1ccc(C(=O)Nc2ccc(S(=O)(=O)O)c3cc(S(=O)(=O)O)cc(S(=O)(=O)O)c23)cc1NC(=O)c1cccc(NC(=O)Nc2cccc(C(=O)Nc3cc(C(=O)Nc4ccc(S(=O)(=O)O)c5cc(S(=O)(=O)O)cc(S(=O)(=O)O)c45)ccc3C)c2)c1 [Suramin hexasodium] | 45.8%
46 | CC(=O)Nc1c(I)c(NC(C)=O)c(I)c(C(=O)O)c1I [diatrizoic acid] | 12%

Row | Structure (SMILES) | motility inhibition on day 3
47 | CCc1cc(C(N)=S)ccn1 [ethionamide] | < 0%
48 | CN1CCN(C(c2ccccc2)c2ccc(Cl)cc2)CC1 (centres undefined) [chlorcyclizine hydrochloride] | < 0%
49 | O=C(N/N=C/c1ccc([N+](=O)[O-])o1)c1ccc(O)cc1 [nifuroxazide] | 61.6%
50 | CN(C)CCCOc1nn(Cc2ccccc2)c2ccccc12 [benzydamine hydrochloride] | 3.66%
51 | CCCCC(=O)O[C@]1(C(=O)CO)[C@@H](C)C[C@H]2[C@@H]3CCC4=CC(=O)C=C[C@]4(C)[C@@]3(F)[C@@H](O)C[C@@]21C [betamethasone valerate] | 14.1%
52 | CC(=O)OCC(=O)[C@@]1(O)CC[C@H]2[C@@H]3CCC4=CC(=O)C=C[C@]4(C)[C@@]3(F)[C@@H](O)C[C@@]21C [isoflupredone acetate] | 25.2%
53 | COc1cc(C(=O)N2CCOCC2)cc(OC)c1OC [trimetozine] | 4.26%
54 | CC(=O)OCC(=O)[C@@]1(O)CC[C@H]2[C@@H]3CCC4=CC(=O)CC[C@]4(C)[C@H]3C(=O)C[C@@]21C [cortisone acetate] | < 0%
55 | C#C[C@]1(O)CC[C@H]2[C@@H]3[C@H](C)CC4=C(CCC(=O)C4)[C@H]3CC[C@@]21C [tibolone] | 7.01%
56 | OC[C@@H](O)[C@@H](O)[C@H](O)[C@@H](O)CO [sorbitol] | 15.8%
57 | S=C=Nc1ccc(N=C=S)cc1 [bitoscanate] | 6.07%
58 | CC1CCC(NC(=O)N(CCCl)N=O)CC1 (centres undefined) [semustine] | 17%
59 | COc1cc2nc(N3CCN(C(=O)C4CCCO4)CC3)nc(N)c2cc1OC (centres undefined) [terazosin hydrochloride] | 17.5%
60 | Oc1ccc(O)cc1 [hydroquinone] | < 0%
61 | Cc1cc2nc3ccc(N(C)C)cc3[s+]c2cc1N [tolonium chloride] | 87.3%
62 | Nc1ccc(S(=O)(=O)Nc2ccc(Cl)nn2)cc1 [sulfachlorpyridazine] | 13%
63 | CC(C)OC(=O)CCC/C=C\C[C@@H]1[C@@H](CC[C@@H](O)CCc2ccccc2)[C@H](O)C[C@@H]1O | < 0%
64 | O=c1[nH]c(=O)n([C@H]2C[C@H](O)[C@@H](CO)O2)cc1F [floxuridine] | 15.3%
65 | Nc1ccc(C(=O)Oc2ccccc2)c(O)c1 [fenamisal] | 2.53%
66 | CNNCc1ccc(C(=O)NC(C)C)cc1 [procarbazine hydrochloride] | 15.9%
67 | NS(=O)(=O)c1cc2c(cc1Cl)NCNS2(=O)=O [Hydrochlorothiazide] | 5.44%
68 | CN(C)CCC=C1c2ccccc2C=Cc2ccccc21 [cyclobenzaprine hydrochloride] | 13.4%
69 | CCC(=O)O[C@H]1[C@H](O[C@@H]2[C@@H](C)[C@H](O[C@H]3C[C@@](C)(OC)[C@@H](O)[C@H](C)O3)[C@@H](C)C(=O)O[C@H](CC)[C@@](C)(O)[C@H](O)[C@@H](C)C(=O)[C@H](C)C[C@@]2(C)O)O[C@H](C)C[C@@H]1N(C)C [erythromycin estolate] | 4.66%
